According to article PMC12370185:
The list shows a part of the results. At the low end of the ranking, values are background and their order means little.

System: OCT4 + histone octamer
Experiment: Pioneer-seq (competitive nucleosome EMSA with sequencing)
Conditions: 10 mM Tris-Cl pH 7.5, 50 mM NaCl, 1 mM DTT, 0.25 mg/ml BSA, 2 mM MgCl2, 0.025% Nonidet P-40, 5% glycerol; 28 nM nucleosome library; 10 min on ice then 30 min …; high values mean tight binding; double strand, one strand shown

**Q.** Which binding signal (log2 relative supershift) does the source give for “GATGGACCCTATACGCGGCGGGAGACCAGGCGTCCTGGTCCCTTCCTTCTGTCTCCGGCTCCCGCCCCCCAAGCAGAAACAGGTCCCTGCACGCCTCCAGCCCAGCCCGCAGCGCGGCGCAGCTCGGCGCAGCTCGGCGCTGGGAGCTCGCTCCGGACTTCTCGGGATTAACCTGCTATTATGTCCCGGAGCCCTTCCCTGCAATGGGCTTGCCAGTCGGATAGTGTTCC” here?
**A.** The binding signal (log2 relative supershift) was -0.174.

**Q.** How did the binding signal (log2 relative supershift) turn out when “GATGGACCCTATACGCGGCAAAAAAAAAGCGAAGGTGAGATGAAGCTTCAGAAAATAGAGGGCCGGGGAGGACACAGGCAGACAGAAGGAATGAGCGACTCAGTCTCAGGTTTCTGGGTCAGATCCAGGTCACATGTTTTGTCTCCTATAAAACTTACACCATACTTGTCGTTACTTGTTCAGTGCCTGCCTCTTCAACTAGGCTGTGAATGCCAGTCGGATAGTGTTCC” was run?
**A.** The binding signal (log2 relative supershift) was -0.16.

**Q.** How did the binding signal (log2 relative supershift) turn out when “GATGGACCCTATACGCGGCAAAATCACAACCTACAAGTACAGAAGAGATTGCTACAGAGAAGGGTGGTGCTCCACACTCAGAGGCATGAATAAAAGGCCTAAGAGAGCACACAAGGCAATGATTAAGATGCAAATACGCCTTTCAGGTTGGCTCCTTCCTATCTTTCCATCTTGTGCTAAGCAGTGAGAAGAAAAATATTTATCCACAGCTGCCAGTCGGATAGTGTTCC” was run?
**A.** The binding signal (log2 relative supershift) was -0.0814.

**Q.** “GATGGACCCTATACGCGGCAAAATATATATATATATAGTGGGACTGGGGAATCACAGAACCTTGCCTCAGCCCTGCCACCTTGCTGCCCATGAGGCTTTCAGGGAGGCTGTGGGAAGGGAGGGGGACAATGTCAAAGGCACATGGAAGCTCCCCTTTTATTATTAGCTGGGTGTGTGCCCAGCTCCTCCCAAACAGAACAGGGCTGGGACTGCCAGTCGGATAGTGTTCC” was tested. Which binding signal (log2 relative supershift) did it give?
**A.** Its binding signal (log2 relative supershift) is -0.413.

**Q.** How did the binding signal (log2 relative supershift) turn out when “GATGGACCCTATACGCGGCAGCTGCATTTGGGACCTTATGGGAAAGTCTGTAAAATTTGCTGTCTTTATTTGCCCTTTAGAGAAAACAGTTTGCTGACCCCTGCACTACAGAGGTTAAGGAGTCCTCCCTCCCTCCCAAGGACCTGTATAGGCACGAAGGCCAGAGGAGCTGTTCTTATCTATGAAAGCTTCCTGGAGTGGATTTCGTGGTGCCAGTCGGATAGTGTTCC” was run?
**A.** The binding signal (log2 relative supershift) was -0.309.

**Q.** Which binding signal (log2 relative supershift) does the source give for “GATGGACCCTATACGCGGCGCAGTAAAATCAACAGCTATGGTTGTGATGGAAGAAGAAAGACATAACCATTACCCAGAAGAGGGTGGATAGTAGTGTTTAGTTTTATTATTAGCAGCACTATTTACATAACAGCACATGTGCATGCCTGCCTGTCCATATAGAGCTATGGGCTTGGGGTGGGGCAAGAGAGAGTCATTGCTTGTAGAATTTGCCAGTCGGATAGTGTTCC” here?
**A.** The binding signal (log2 relative supershift) was -0.265.

**Q.** Which binding signal (log2 relative supershift) does the source give for “GATGGACCCTATACGCGGCGTATCCTAGAACTGCACTTTCTATCAACTTATGTTTCCCTGTGAAGAAAACCTTGTCTCAGCGAGGTGTGGCTGTTCTCAGAGTACTGTGTGTATATGCACGTGGGTGGGTGTGGGTGTGCATATATGTGTAATGGGGACGAACGAGTATTCCTGTACCTTCTTGTTGAGTAGAAGAAAAACATCAAGTTCTGCCAGTCGGATAGTGTTCC” here?
**A.** Its binding signal (log2 relative supershift) is -0.843.

**Q.** How did the binding signal (log2 relative supershift) turn out when “GATGGACCCTATACGCGGCGACATTGAATCCCCTCACTATAATCTGAATGTGATTTATTATCCCCTTAAAGAGGGGCATCCATACAGGCATGGTCTAATCCCTTGCAATTCAAAGTGTAATCCAAAAGCCAGTAGCATTTGCATCACTTGGGAGCCTGTTACAAATGCACAACCTCAGACCCACCCCACACCTACTGAATCAAGATCCACTGCCAGTCGGATAGTGTTCC” was run?
**A.** The binding signal (log2 relative supershift) was -0.112.

**Q.** Which binding signal (log2 relative supershift) does the source give for “GATGGACCCTATACGCGGCTTTGCCGAGAGGTTTGTTTCTGTTATAACTTTTCAAGACTGACTCCATTGTTTATTTTTGGAGCCAACTAGTCTTAGACCTCAGACCTCAGCACACTCAACAGGCCTCAACATGTTTTGAGGGCCTGCCGGAGAAGGCCCAGGCCTCACGGGTGCAGGTCCTACAGAAACCCAGTATCTGAGAGCAGCCTCTGCCAGTCGGATAGTGTTCC” here?
**A.** The binding signal (log2 relative supershift) was -0.572.

**Q.** With “GATGGACCCTATACGCGGCTGTGAATTGTGGAGGAAGGGCCCAGGAGGGCCACATGCCCTGCCAGGGAAGCCATAGAGAGCCCTGCCCCGGGAGGTCAGTGCCTCCTTCAATGCCTGCGATCCCTCACCCTGCCCTGCTTCCCCCACCATCCGCCCCGCCTGGGCAGCCTGGGCCACTGCCCGCCAGCCACCCCCGCCTTCGGACTGTGCTGCCAGTCGGATAGTGTTCC” as the sequence, how does the binding signal (log2 relative supershift) read?
**A.** Its binding signal (log2 relative supershift) is -0.487.

**Q.** With “GATGGACCCTATACGCGGCCCTCCCTGGGCATACCTGGTGGCATCAGGCCTGATCCTCTACAATGTCTGTCCCTGCCCTTGCCTGCTACTTCCAGGCCTACCTCCAGCCCAGACCTGCCCAGGCCTGCCCAGGCCCTGCTCTACCCTGATGCTCTGTGGCTCTGTTCCTGGGACTCTTCCTGGGAGACAGAAGGGAGATGAGAGCTCAAGTGCCAGTCGGATAGTGTTCC” as the sequence, how does the binding signal (log2 relative supershift) read?
**A.** The binding signal (log2 relative supershift) was -0.687.

**Q.** How did the binding signal (log2 relative supershift) turn out when “GATGGACCCTATACGCGGCCTAATGTGCCTTTGTTAGCAATATCACTTATTTTCTTCAACTGATGTTGAACACATTGTGCTCTCCCAAGCAGGTCTTAAGTCATGCCACGTCAGGGCTGGACCGCTCTTCTTATTCTGCACATGGGCCCTCACTTAGGCAGGGGTGCGGTCAACATTGAAAGAGGTTCCATTCTAGGAATGTAGTGGTTATGCCAGTCGGATAGTGTTCC” was run?
**A.** Its binding signal (log2 relative supershift) is -0.436.

**Q.** Which binding signal (log2 relative supershift) does the source give for “GATGGACCCTATACGCGGCTCTATAGAAGGGTGCGCCCTTACAGATGGAACAATGGTGAGCACACACTTGGACAAGGGAGGGGAAGGAGTTCTTATCCCTGATGCACATGGACCCTGCTGCTGTGCCATTCCCCCATTGGCTAGGGTTAGACTGCACAGGCTAAAGTAATTCCAATTGGCTACTTTAAAGAGAATGACAGGGTGAGTGCTTGCCAGTCGGATAGTGTTCC” here?
**A.** Its binding signal (log2 relative supershift) is -0.387.

**Q.** With “GATGGACCCTATACGCGGCCCACAGGACTGGAGCCATCCCCAAGGTGAGTGTCAGGATGTTTTGAAACTGGGACACACTGTACAGGGGTGAACAAAGGAATCTGCTTTTCAATACCACACTGCCTGCTGCAACCAAATGTCACTGCAGGGCTTAACAGTGAGTAAATGCTGTGTGTGTAAATGCTTCTTCTATGTTTAAAAAACAGGAAATGCCAGTCGGATAGTGTTCC” as the sequence, how does the binding signal (log2 relative supershift) read?
**A.** Its binding signal (log2 relative supershift) is -0.307.

**Q.** How did the binding signal (log2 relative supershift) turn out when “GATGGACCCTATACGCGGCCTTCTGGCATGGACTTTGCCCCAGAGGGACACACCTAGCTTCTTGCGGGAGTGGGCAAGGAGGAGCACAGTTGGAACTACAGGGAGGGTGGTGGGGCTTGGCCCCCATGCAGTAGGCACATGGCAGGTGTTCCCTAAGGAGGAAACCTGGCCCTCCTCAGTCTTTCCTGTGAGACTGAGTAGGCAGAGTGGTGCCAGTCGGATAGTGTTCC” was run?
**A.** The binding signal (log2 relative supershift) was -0.16.

**Q.** “GATGGACCCTATACGCGGCGGGAATACGTGCATGAGTGGGGTGTGTGTGCATGTGTGTGAATGTGTGTGTGCATGTGCAAAGCAACTCTGTGTATGAGGCAAACCTGAGTGTGTGCGGTGCGTGTGAATGCCTGCATGTGCGCGTGCGTGTGTGAAGAGTCTGCGTGGGGGAACACGTGTGTAAAGGCATGGATGTGCACGTGTGTGTGCTGCCAGTCGGATAGTGTTCC” was tested. Which binding signal (log2 relative supershift) did it give?
**A.** Its binding signal (log2 relative supershift) is -0.796.

**Q.** How did the binding signal (log2 relative supershift) turn out when “GATGGACCCTATACGCGGCCCTAGTAGCTGGGAGTTCCCTCTCTGGAGGCCTGTTCCCATTTCTCCAGAGACAATGCTGCATCACAATGTTCCAGATCTTTCACAGGTCATTGACAGGCATCCTATAGGACTTCCCCCCAATACCCCCACCCCGAGAACTCTTTCAGTGGGTTCTCCAGTGACTTAGAAACAAATTTTTTCCTTGGTGGGTGCCAGTCGGATAGTGTTCC” was run?
**A.** Its binding signal (log2 relative supershift) is -0.307.

**Q.** How did the binding signal (log2 relative supershift) turn out when “GATGGACCCTATACGCGGCGCCGTTGTCTTCTTATGCAAGAATAAGGTACGTCTTTCCATCCACTCACGTCTATTTAATTTGACTTTGCATTACACAGAAAGCTGGTCTTGGTCTGTCTACCTCGGCATCTAGTTGTCCTCACTGCCCCCTAGCCGACCCCACCCCATCTGACTGACTACCCCATCACAGAGTACTTTTATTTACGTTTTTGCCAGTCGGATAGTGTTCC” was run?
**A.** The binding signal (log2 relative supershift) was -0.207.

**Q.** How did the binding signal (log2 relative supershift) turn out when “GATGGACCCTATACGCGGCCTCCTAAGAGGCTTCTCATAGCAAACTCCCCCTCCTTCCGCTGAGAGGGTTTGATGGCAGGCAACAGATGACTTAGGACTCCTCTAATGGTCTTTAGGAACAGGAAGGCACCACCACCATTATCATGCAACATTGTTCTGGAAGTGCAAGCCAATGCAATTAGATAAGGAGAAAAATAAGAGGTAAATGTATGCCAGTCGGATAGTGTTCC” was run?
**A.** The binding signal (log2 relative supershift) was -0.0711.

**Q.** For “GATGGACCCTATACGCGGCAGAATTTCAGGACAATGACTGCAGAACATTAAACTAAGCATGGGTCCTTCTGAGTACTGGGCCCTGTGTGACTGCAGAGGCCTCACACTCATGAAGCTGGCCCTGCATTCATGTGGAAATGTGTAAAAAATAGATATTGAAGTCGGGAGAGCTGGTGAAAGGTCATTTTTGGAGATGTAGGCTTGGGAATTTGCCAGTCGGATAGTGTTCC”, which binding signal (log2 relative supershift) is on record?
**A.** The binding signal (log2 relative supershift) was -0.562.

**Q.** “GATGGACCCTATACGCGGCAAGAATAGATGTTCTGGTAAAGGTCCCTGAGAGACACTAAGGTTGAATCTTGCTTGGGAGACATCCTGTGTATGTGCAGCAGATGGCAGTCTGCATTGGAATGGATCACAAGTCCAGTTTGTGCCACTTTTGTTCCGCTGTATGGTATGGTAAATTACAACCAGGGGGGCATAACCAGTTACAGCACTGCCTGCCAGTCGGATAGTGTTCC” was tested. Which binding signal (log2 relative supershift) did it give?
**A.** Its binding signal (log2 relative supershift) is -0.0738.

**Q.** How did the binding signal (log2 relative supershift) turn out when “GATGGACCCTATACGCGGCCATTCCCCAAGCCCTCCCAGTTATCCATGATCAGGAGGCTGTCTCTTTGCCTGCCTTCTCCAACCCTGCACCCAGCCTCTTTGCCTCTGCAGGACTTCCCCAGAAAGTTGAATCTTCTTCCCTTTATAGAGCGGAGCAGTTCAGCTCAGACTTGTAGGCACACCTGTGCAGCACAGACCAACGTCTCTCCTTGCCAGTCGGATAGTGTTCC” was run?
**A.** The binding signal (log2 relative supershift) was -0.401.

**Q.** Which binding signal (log2 relative supershift) does the source give for “GATGGACCCTATACGCGGCTCCTACAATCAGTGTGAACATGGGCAACTCAGAAAATTTCTAATTAATTCATCAAATACCTTTTAAGGACCTATTGCGTCTAAGGTTCTGTGCTAGGCTGTAAGGCTCAATGTCTTACATTGTAATGCAGGGACAATACCAACTATGGCAGAGAGTTGTGATGATCAAAGTGGGCAAAGATTACAGATTATTGCCAGTCGGATAGTGTTCC” here?
**A.** The binding signal (log2 relative supershift) was -0.419.

**Q.** For “GATGGACCCTATACGCGGCTTGTTGTTTGTACCTTTAAGTCCTATCCTGTATTTATGGATGAAATGATGTCATGTCTGAGATTTGCTTCACAATAATGCAGTAGTGGGCAAAGAAGGGTGGAAGTGCAGATGACACGCAATAGGCTGTGTGCTGGTTAATTTTGAGGGTGGTTGATAGATATGTGTGGCTTATTGTACAGTTCCCTTTTTTGCCAGTCGGATAGTGTTCC”, which binding signal (log2 relative supershift) is on record?
**A.** Its binding signal (log2 relative supershift) is -0.459.
